Values of other authors as cited in patent US20250032488A1, “METHODS OF TREATMENT USING LOU064” (NOVARTIS AG, priority 2021, published 2025).
For at least one compound, name, drawing or mass did not settle the structure.

Test system: allergic subjects
Details: cited from earlier work

SMILES: C=CC(=O)N1CCC[C@@H](n2nc(-c3ccc(Oc4ccccc4)cc3)c3c(N)ncnc32)C1 [ibrutinib]
- Skin prick test reactivity to aeroallergens and foods: reduce or eliminate
